Patent publication EP1988102A1
No constants are given. Whether binding was seen depends on the method and setting. In cells and extracts the contact can be indirect. These calls come from enrichment with a bait or labelling near it, and not all partners need be listed.

By UniProt entry, the sequences of proteins in these tests, tags left out. Residues count along the entry.
UniProt P16234, residues 24-528: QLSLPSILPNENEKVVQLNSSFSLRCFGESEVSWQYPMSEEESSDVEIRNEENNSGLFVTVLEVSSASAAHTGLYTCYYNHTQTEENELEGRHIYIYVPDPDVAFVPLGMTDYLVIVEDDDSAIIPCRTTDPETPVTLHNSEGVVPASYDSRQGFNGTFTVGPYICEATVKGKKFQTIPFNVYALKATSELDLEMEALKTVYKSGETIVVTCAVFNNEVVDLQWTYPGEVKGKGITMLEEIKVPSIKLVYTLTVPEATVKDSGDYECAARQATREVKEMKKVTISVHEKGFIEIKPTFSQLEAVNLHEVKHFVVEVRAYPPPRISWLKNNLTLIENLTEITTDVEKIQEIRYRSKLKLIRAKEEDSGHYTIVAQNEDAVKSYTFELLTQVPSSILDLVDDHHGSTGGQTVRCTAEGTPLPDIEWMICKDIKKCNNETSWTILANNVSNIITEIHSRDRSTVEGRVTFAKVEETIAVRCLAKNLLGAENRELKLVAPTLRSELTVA
UniProt P01127, residues 82-190: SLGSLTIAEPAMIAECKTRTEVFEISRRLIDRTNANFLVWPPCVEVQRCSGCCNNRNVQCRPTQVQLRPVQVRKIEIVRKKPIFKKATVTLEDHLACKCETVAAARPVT

target: PDGF alpha receptor IgG Fc-receptor extracellular domain fusion protein (UniProt P16234); assay: SELDI mass spectrometry (ProteinChip); receptor-Fc captured on a protein-A chip

| binding | Substance |
| --- | --- |
| binds | PDGF AB (from UniProt P04085 87-211; P01127 82-190) (ligand) |
| binds | PDGF-AA (from UniProt P04085 87-211) (ligand) |
| binds | PDGF-BB (from UniProt P01127 82-190) (ligand) |
